Assay results taken from patent publication US10106684B2, “Method for making Schiff base” (KING FAHD UNIVERSITY OF PETROLEUM AND MINERALS, priority 2016, dated 2018).

Experiments:
[1] = Selectivity and tolerance study, fluorescence with different metal cations; settings: 0.2 μM compound
Experimental: All of the absorption and emission studies were carried out in mixed aqueous solutions of water and methanol (4:1) containing HEPES buffer (10 mM, pH 7.4) at a concentration of 20 μM and 0.2 μM respectively. Emission studies were carried out by addition of 10 equiv of various biologically and non-biologically relevant metal cations to an aqueous-MeOH (4:1) solution of compound 1 at a concentration level of 0.2 μM and their complexation abilities were studies by fluorescence. […] Importantly, none of the other cations induced any such distinct emission shift or quenching (FIG. 7). […] Fluorescence titration of compound 1 with Cu^2+ was carried out in aqueous MeOH (4:1) solution at a concentration level of 0.2 μM. The addition of Cu^2+ to the solution of compound 1 caused a complete quenching of the fluorescent emission and the peak at 525 nm (Φ=0.32) is “switched off” when excited at 502 nm (FIG. 9).
To evaluate the selectivity and tolerance of compound 1 for Cu^2+ over other metal cations, 10 equiv of the different metal cations were added to a 0.2 μM solution of compound 1. In the case of Cu^2+, the molecular fluorescence is quenched to a maximum level and therefore a high molecular sensitivity is attained. […] Fluorescent sensors for and with transition metals; John Wiley & Sons Ltd: Chichester, 1999. —incorporated herein by reference in its entirety]. […]

[2] = Fluorescence titration of compound 1 with Cu^2+ (Stern-Volmer plot, detection limit); assay type: binding
Experimental: All of the absorption and emission studies were carried out in mixed aqueous solutions of water and methanol (4:1) containing HEPES buffer (10 mM, pH 7.4) at a concentration of 20 μM and 0.2 μM respectively. Emission studies were carried out by addition of 10 equiv of various biologically and non-biologically relevant metal cations to an aqueous-MeOH (4:1) solution of compound 1 at a concentration level of 0.2 μM and their complexation abilities were studies by fluorescence. […] Importantly, none of the other cations induced any such distinct emission shift or quenching (FIG. 7). […] Fluorescence titration of compound 1 with Cu^2+ was carried out in aqueous MeOH (4:1) solution at a concentration level of 0.2 μM. The addition of Cu^2+ to the solution of compound 1 caused a complete quenching of the fluorescent emission and the peak at 525 nm (Φ=0.32) is “switched off” when excited at 502 nm (FIG. 9). […]
Thus, it can be assumed that the quenching of the fluorescence of compound 1 by Cu^2+ ion is a static quenching mode due to the formation of a non-fluorescent complex in the ground state. […] From the Stern-Volmer linear plot (FIG. 14) the binding constant of compound 1 with Cu^2+ was calculated to be 1.0×10^7 L·mol^−1 (error limits≤10%).

SMILES: Cn1ccnc1/C=N/N1C(=O)c2ccccc2C12c1ccc(O)cc1Oc1cc(O)ccc12 [compound 1, Fluorescein-N-methylimidazole conjugate]
- fluorescence quenching by metal ions other than Cu^2+ ([1]; 10 equiv of metal cation): no appreciable quenching
- interference of other metal ions with the quenching by Cu^2+ (competitive binding) ([1]; other metal ions 10.0 equiv, Cu^2+ 1.0 equiv): did not interfere
- fluorescence quantum yield Φ of emission peak at 525 nm ([2]; 0.2 μM, excited at 502 nm, aqueous MeOH (4:1)): 0.32
- detection limit for Cu^2+ ([2]; fluorescence, H2O:MeOH (4:1), HEPES 10 mM, pH 7.4, λex=502 nm): 0.037 µM
